In article PMC7206048:
Results are given in words; binding and its absence hold for the method and conditions named. Binding seen in cells or lysates may run through a third protein. Some results given as binding are weak or reduced against the parent protein; the word gives no strength. For part of these data: Where a sequence is shown, tags or fusion partners need not be part of it.

The chains behind the UniProt entries cited, without tags or fusion partners.
UniProt Q9D4F8: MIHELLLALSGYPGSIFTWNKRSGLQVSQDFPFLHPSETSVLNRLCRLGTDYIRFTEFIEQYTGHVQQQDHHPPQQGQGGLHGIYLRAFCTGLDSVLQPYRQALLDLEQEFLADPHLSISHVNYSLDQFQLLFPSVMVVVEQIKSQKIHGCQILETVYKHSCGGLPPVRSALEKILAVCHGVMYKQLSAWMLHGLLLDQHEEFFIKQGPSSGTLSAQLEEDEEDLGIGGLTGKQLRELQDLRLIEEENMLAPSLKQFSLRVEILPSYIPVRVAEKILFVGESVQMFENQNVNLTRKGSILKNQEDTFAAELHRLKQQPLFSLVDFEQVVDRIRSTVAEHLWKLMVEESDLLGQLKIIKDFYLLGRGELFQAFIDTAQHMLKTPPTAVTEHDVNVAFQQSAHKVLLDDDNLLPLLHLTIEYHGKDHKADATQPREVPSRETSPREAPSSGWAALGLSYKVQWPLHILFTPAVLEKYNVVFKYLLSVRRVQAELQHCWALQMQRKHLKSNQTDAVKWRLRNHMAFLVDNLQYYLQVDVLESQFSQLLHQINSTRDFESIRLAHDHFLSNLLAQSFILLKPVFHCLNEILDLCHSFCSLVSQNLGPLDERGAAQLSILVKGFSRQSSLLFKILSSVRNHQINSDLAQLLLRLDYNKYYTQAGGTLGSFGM
UniProt Q921G8: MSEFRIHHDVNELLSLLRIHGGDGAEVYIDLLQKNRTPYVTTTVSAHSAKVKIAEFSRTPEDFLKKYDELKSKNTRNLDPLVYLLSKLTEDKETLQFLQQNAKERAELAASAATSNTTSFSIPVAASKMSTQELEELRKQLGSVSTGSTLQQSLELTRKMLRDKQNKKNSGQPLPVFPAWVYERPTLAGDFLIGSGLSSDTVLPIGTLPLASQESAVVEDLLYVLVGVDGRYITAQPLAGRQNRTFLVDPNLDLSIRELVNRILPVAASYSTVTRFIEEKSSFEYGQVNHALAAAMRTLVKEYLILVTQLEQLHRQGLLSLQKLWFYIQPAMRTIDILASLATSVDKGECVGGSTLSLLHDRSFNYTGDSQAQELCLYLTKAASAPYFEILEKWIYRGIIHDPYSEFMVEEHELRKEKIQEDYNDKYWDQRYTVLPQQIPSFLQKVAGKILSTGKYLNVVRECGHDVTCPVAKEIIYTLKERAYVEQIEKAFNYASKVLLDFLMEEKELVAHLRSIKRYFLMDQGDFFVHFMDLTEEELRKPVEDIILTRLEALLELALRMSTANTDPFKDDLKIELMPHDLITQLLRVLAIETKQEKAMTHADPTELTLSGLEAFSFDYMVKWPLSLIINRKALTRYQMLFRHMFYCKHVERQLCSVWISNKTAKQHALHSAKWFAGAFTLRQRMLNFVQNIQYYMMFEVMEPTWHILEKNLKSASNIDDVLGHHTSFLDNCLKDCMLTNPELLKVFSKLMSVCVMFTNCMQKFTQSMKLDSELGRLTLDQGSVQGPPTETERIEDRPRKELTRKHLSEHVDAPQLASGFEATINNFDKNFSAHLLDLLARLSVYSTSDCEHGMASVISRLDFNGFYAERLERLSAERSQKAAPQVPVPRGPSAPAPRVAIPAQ
UniProt Q8BKN5: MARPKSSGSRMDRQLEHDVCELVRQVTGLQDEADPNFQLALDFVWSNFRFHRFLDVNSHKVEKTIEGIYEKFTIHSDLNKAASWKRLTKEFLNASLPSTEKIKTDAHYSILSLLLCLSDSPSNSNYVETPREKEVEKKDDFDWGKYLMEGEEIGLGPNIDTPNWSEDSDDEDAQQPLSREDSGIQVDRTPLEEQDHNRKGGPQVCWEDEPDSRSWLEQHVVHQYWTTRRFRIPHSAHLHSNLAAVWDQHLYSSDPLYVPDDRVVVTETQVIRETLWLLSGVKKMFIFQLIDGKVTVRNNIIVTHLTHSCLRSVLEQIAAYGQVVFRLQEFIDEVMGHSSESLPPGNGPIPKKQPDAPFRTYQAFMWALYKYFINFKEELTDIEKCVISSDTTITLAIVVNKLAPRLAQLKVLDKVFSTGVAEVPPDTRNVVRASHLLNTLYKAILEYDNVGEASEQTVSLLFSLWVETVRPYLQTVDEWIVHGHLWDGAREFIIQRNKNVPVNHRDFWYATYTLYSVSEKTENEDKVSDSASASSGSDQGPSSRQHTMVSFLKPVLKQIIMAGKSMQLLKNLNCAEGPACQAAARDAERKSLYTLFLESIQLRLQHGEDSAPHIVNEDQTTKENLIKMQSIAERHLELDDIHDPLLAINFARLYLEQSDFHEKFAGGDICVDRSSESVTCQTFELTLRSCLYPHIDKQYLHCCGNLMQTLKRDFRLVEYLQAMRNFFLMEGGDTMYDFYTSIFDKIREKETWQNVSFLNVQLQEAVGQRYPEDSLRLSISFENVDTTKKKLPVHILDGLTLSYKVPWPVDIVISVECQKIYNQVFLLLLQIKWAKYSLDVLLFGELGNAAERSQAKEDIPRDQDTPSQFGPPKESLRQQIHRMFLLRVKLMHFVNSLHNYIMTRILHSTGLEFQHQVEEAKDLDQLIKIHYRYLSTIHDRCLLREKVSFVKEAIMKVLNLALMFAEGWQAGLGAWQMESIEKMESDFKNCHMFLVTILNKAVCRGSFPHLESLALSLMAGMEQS

Experiments:
[1] = target: T1, MYC-ATG7 (from pMyc-ATG7) (human) (UniProt O95352); experiment: co-IP; competition: pMyc-ATG7 co-transfected with 1 μg p3xFlag-ATG3 or p3xFlag-TUBGCP4 and increasing amounts (0, 0.3, 0.6, 1.2 μg) of the other; anti-MYC precipitation, anti-FLAG blot
T1 sequence: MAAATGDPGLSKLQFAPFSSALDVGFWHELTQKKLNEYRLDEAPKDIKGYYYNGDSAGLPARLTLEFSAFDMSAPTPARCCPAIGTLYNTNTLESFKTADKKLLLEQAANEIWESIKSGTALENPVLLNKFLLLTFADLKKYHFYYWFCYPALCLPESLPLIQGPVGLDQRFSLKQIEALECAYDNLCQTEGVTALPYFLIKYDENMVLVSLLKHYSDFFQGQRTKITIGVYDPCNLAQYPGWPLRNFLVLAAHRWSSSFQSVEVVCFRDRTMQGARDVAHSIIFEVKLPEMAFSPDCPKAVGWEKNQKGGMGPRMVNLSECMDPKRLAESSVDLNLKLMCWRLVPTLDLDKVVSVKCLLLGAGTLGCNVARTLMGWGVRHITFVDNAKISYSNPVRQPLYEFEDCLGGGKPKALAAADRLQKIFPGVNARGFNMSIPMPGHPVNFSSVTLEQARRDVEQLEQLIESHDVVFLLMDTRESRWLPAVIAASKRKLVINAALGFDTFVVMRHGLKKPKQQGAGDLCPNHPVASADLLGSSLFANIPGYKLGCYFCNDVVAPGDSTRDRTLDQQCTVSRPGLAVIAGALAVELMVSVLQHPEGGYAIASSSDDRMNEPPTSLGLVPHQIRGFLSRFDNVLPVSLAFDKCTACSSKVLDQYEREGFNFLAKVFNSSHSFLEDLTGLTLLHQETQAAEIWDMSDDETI

[2] = target: T1, MYC-ATG7 (from pMyc-ATG7) (human); experiment: co-IP; 293T cells co-transfected with Myc- and 3xFlag-tagged constructs, 48 h; HEPES buffer with 150 mM NaCl, 0.5% NP-40; anti-MYC or anti-FLAG with Protein G agarose overnight at 4 °C
[3] = target: GCP4 (gamma-tubulin complex protein 4, encoded by Tubgcp4) (mouse (endogenous in retina)) (UniProt Q9D4F8); experiment: co-sedimentation; retina extracts of wild-type and Tubgcp4+/- mice on a 5-40% continuous sucrose gradient in HEPES buffer, 4 h at 314,000 x g, 4 °C; 14 fractions analysed by western blotting
[4] = target: GCP4 (gamma-tubulin complex protein 4, encoded by Tubgcp4) (mouse (endogenous in retina)) (UniProt Q9D4F8); experiment: co-IP; endogenous proteins in mouse retina lysates (wild-type and Tubgcp4+/-); HEPES buffer with 150 mM NaCl, 0.5% NP-40; anti-GCP4 or anti-ATG7 with Protein G agarose overnight at 4 °C; control IgG
[5] = target: T2, ATG7 (mouse (endogenous in retina)) (UniProt Q9D906); experiment: as above
T2 sequence: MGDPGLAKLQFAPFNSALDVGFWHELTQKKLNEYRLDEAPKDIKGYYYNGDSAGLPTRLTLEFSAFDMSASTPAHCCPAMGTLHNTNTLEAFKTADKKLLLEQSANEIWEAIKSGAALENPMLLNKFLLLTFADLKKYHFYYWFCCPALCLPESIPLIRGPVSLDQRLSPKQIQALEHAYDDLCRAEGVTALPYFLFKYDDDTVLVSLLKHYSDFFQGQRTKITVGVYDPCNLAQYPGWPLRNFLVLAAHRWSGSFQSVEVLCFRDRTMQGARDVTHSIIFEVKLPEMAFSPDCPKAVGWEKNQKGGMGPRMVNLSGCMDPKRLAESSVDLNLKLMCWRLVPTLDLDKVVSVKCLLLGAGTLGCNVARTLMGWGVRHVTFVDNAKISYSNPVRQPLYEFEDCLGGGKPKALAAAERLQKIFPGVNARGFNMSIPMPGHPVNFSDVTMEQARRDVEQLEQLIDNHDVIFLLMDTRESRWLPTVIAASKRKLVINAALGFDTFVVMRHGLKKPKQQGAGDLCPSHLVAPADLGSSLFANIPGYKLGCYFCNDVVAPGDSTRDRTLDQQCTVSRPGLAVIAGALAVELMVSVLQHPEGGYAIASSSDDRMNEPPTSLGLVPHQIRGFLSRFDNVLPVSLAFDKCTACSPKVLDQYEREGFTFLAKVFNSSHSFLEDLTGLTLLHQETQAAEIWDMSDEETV

[6] = target: T3, GST-ATG7 (human) (UniProt O95352); experiment: pull-down; GST fusions from E. coli supernatants (10 μg) on glutathione-agarose beads, washed with HEPES buffer, incubated with 10 μg supernatant of His-GCP4 overnight at 4 °C; blot with anti-GCP4; only the target purified
T3 sequence: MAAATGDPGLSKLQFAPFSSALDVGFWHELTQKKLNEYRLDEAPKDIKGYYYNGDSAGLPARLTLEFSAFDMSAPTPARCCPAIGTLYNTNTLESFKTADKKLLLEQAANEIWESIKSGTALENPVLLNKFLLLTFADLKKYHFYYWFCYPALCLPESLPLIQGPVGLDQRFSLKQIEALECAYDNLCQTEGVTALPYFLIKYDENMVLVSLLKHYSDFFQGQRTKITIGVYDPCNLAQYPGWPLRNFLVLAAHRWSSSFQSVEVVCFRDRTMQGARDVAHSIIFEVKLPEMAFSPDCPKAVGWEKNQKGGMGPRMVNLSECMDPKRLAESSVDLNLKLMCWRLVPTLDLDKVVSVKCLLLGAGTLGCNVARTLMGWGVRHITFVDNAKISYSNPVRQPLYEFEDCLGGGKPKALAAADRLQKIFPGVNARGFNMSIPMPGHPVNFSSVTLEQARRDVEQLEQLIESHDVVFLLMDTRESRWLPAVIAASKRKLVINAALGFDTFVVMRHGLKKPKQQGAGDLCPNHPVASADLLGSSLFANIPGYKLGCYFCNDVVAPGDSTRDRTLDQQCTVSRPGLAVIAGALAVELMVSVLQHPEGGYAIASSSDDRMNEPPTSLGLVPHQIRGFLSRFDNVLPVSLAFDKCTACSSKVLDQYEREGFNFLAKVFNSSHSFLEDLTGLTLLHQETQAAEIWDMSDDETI

[7] = target: FLAG-GCP4 (from p3xFlag-TUBGCP4 / FLAG-Tubgcp4) (mouse) (UniProt Q9D4F8); experiment: co-IP; 293T cells co-transfected with Myc- and 3xFlag-tagged constructs, 48 h; HEPES buffer with 150 mM NaCl, 0.5% NP-40; anti-MYC or anti-FLAG with Protein G agarose overnight at 4 °C

“FLAG-ATG3 (from p3xFlag-ATG3) (from UniProt Q9NT62-1 1-314)” was tested, and the binding [1] was “binds”.

For “FLAG-GCP4 (from p3xFlag-TUBGCP4 / FLAG-Tubgcp4) (from UniProt Q9D4F8 1-667)”, the binding [2] was “binds” and the binding [1] was “binds”.

GCP2 (from UniProt Q921G8 1-905) was tested, and the binding [3] was “binds” and the binding [4] was “binds”.

For “GCP4 (gamma-tubulin complex protein 4, encoded by Tubgcp4) (from UniProt Q9D4F8 1-667)”, the binding [5] was “binds”.

In the case of GCP5 (from UniProt Q8BKN5 1-1024), the binding [4] is reported as “binds”.

His-GCP4 (from UniProt Q9D4F8 1-667) was tested, and the binding [6] was “binds”.

B1: MYC-ATG7 (from pMyc-ATG7) (protein, UniProt O95352-1 1-703)
chain: MAAATGDPGLSKLQFAPFSSALDVGFWHELTQKKLNEYRLDEAPKDIKGYYYNGDSAGLPARLTLEFSAFDMSAPTPARCCPAIGTLYNTNTLESFKTADKKLLLEQAANEIWESIKSGTALENPVLLNKFLLLTFADLKKYHFYYWFCYPALCLPESLPLIQGPVGLDQRFSLKQIEALECAYDNLCQTEGVTALPYFLIKYDENMVLVSLLKHYSDFFQGQRTKITIGVYDPCNLAQYPGWPLRNFLVLAAHRWSSSFQSVEVVCFRDRTMQGARDVAHSIIFEVKLPEMAFSPDCPKAVGWEKNQKGGMGPRMVNLSECMDPKRLAESSVDLNLKLMCWRLVPTLDLDKVVSVKCLLLGAGTLGCNVARTLMGWGVRHITFVDNAKISYSNPVRQPLYEFEDCLGGGKPKALAAADRLQKIFPGVNARGFNMSIPMPGHPVNFSSVTLEQARRDVEQLEQLIESHDVVFLLMDTRESRWLPAVIAASKRKLVINAALGFDTFVVMRHGLKKPKQQGAGDLCPNHPVASADLLGSSLFANIPGYKLGCYFCNDVVAPGDSTRDRTLDQQCTVSRPGLAVIAGALAVELMVSVLQHPEGGYAIASSSDDRMNEPPTSLGLVPHQIRGFLSRFDNVLPVSLAFDKCTACSSKVLDQYEREGFNFLAKVFNSSHSFLEDLTGLTLLHQETQAAEIWDMSDDETI
In the case of B1, the binding [7] is reported as “binds”.
